This note sets out measurements from PubChem BioAssay AID1508600 (Functional Genomics Laboratory (NCATS/FGL), 2020).

Among all 53,000 sequences or so, about 3,700 (7%) were called active.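 How the source made its calls: active means gene knockdowns whose robust z-score for IL-1 alpha signal is at least 2 or at most -2, so actives lie on both sides; inactive means the rest.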 Some of the results follow.

The test in a line: Components of the Cytosolic LPS Sensing Pathway: Gene Identification via Genome-wide siRNA Screen.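 Further: robust z of the log signal after scaling to non-targeting control siRNA wells of the plate.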 The conditions noted are these: RAW264.7 macrophages, IL-1a HTRF, actives lie on both sides, screened at 100 nM (by protocol), cells primed 5 h with Pam3CSK4 first. In a few lines: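 Using IL-1a HTRF as read-out, the screen measured release from RAW264.7 cells after 48h siRNA knockdown (100 nM), 5 h Pam3CSK4 priming and 24 h cytosolic LipidA. Values were expressed relative to negative-control wells as robust z-scores.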
Background: TR-FRET usually uses a lanthanide donor and a delayed reading to cut background.
GCAGAUUGAGCCUGUCAAUTT against Ddx39a: the z-score is inactive: -0.991.

For the sequence GGAUUGAGGGUCAAAUAACTT against Fkbp8, the z-score was inactive: 0.289.

Turning to GGAUAAUACAUCCCAAAACTT against Prkar2b, the z-score is inactive: -0.607.

CGAUCUGACAACUGAUAAGTT against Rad17: the z-score was inactive: 0.729.

Regarding GGGAGAACAGCGACAAACATT against Cbfb, the z-score is inactive: 1.82.

CCUUAACUGGCACAAUUGCTT against Igha: the z-score was inactive: 0.72.

For CCCUCAAAACCUAUGCCUUTT against Ugt1a2, the z-score was inactive: 0.715.

Consider GCAACCUGUCAUUUUGUGATT against Olfr1134, for which the z-score is inactive: -1.74.

For GCACAAGGACACGGAAUACTT against Npr3, the z-score was inactive: -1.28.

Take GGAAGUUUCUGAGACUGUATT against Epx: the z-score was inactive: -0.442.

Regarding GCCUUGUUACAAAUAGUCGTT against Tcf12, the z-score is inactive: 0.266.

Turning to GGGAAGAAAAAGAGCAUAUTT against Dis3l2, the z-score is inactive: 1.4.

Regarding GGAACACAGAGGUAAAAGGTT against Olfr446, the z-score was active: -2.66.

Take GGUUGUUCUUGUCAGUAUUTT against Serpinb6c: the z-score was inactive: 1.67.

Consider GGUGUGACAUUGACCAUAGTT against Stil, for which the z-score is inactive: -0.0547.

Take CCUGAUCUCUUGCUACACCTT against Trpm3: the z-score is inactive: -0.0238.

As to CGGAUAACAAAAGUAGCAATT against Trp53rka, the z-score is inactive: 0.276.

Take GGCUAAGAACUCUAAGAAATT against Palb2: the z-score is inactive: -0.269.

Turning to GCGCAUUGUGUUCUGGUCUTT against Zswim4, the z-score is inactive: -1.55.

As to GGAGGAUUAGAACGGACCUTT against Nop56, the z-score was inactive: 0.588.

As to GUAAAUACACCCAAACUGATT against Olfr1281, the z-score was inactive: -1.1.

Consider GCACAUCUCAUGAAGGAGGTT against Ppp3ca, for which the z-score was inactive: -1.77.

Turning to GGGUUUGUGGCUUCUUUUCTT against Ucp1, the z-score is inactive: 0.849.

Take GGGUAACUGGUUUGUAUGATT against Gm4814: the z-score is inactive: 1.34.

Turning to CCCGCUGAGAUACUCUGUATT against Olfr1395, the z-score is inactive: -1.12.

GCCAUUUAUUCGUCUCUUCTT against Tcaf1: the z-score is inactive: 0.331.

Take GGUGGAGAUCCGAAAGCAUTT against Ltk: the z-score was inactive: 0.597.

Turning to GCGAAUCUCCUCCUAGUGATT against Arhgap28, the z-score was inactive: -0.0218.

Take GGAAAGCAUCUGCAUUAAATT against Mrpl18: the z-score was inactive: -0.466.

Turning to GCCAUUAGUGUGGAGUACUTT against Mrgprb8, the z-score is inactive: 0.294.

With GGACCAUAAAGUGUUACUATT against Tnrc6b, the z-score was inactive: 0.526.

For the sequence CGCAUCAUCAAUGAUGACCTT against Crmp1, the z-score was inactive: -1.32.

With GGAUAGAGAUGGUUGUCCATT against Phf5a, the z-score was inactive: -0.79.

Turning to CCUUACCGCCUUAAACUGATT against Mylip, the z-score was inactive: 0.584.

Take GGUGAUACGUAUUUUUUAGTT against Pan3: the z-score is inactive: -1.09.

With GCCUGAACUUUGACAGAACTT against Cxcr3, the z-score was inactive: 0.538.

As to GGGUUUCUUCAUAACUCUUTT against Rasal2, the z-score is inactive: 0.92.

As for GGACAACUCGAGUCUUAAATT against Poln, the z-score was inactive: 1.

For GGUUUAACAACUUACUUUCTT against Dmgdh, the z-score is inactive: -0.26.

In the case of GACGCAGAAAUGGUUUAAGTT against Hopx, the z-score was inactive: 0.213.

For GGGAAAAACACCAUUUCCUTT against Olfr275, the z-score was inactive: 0.619.

With GCAUUGGGUUUAUCAGCAUTT against Pimreg, the z-score was inactive: 0.284.

On to GGAAGAGAAGAUUUUGGAUTT against Il1f9, for which the z-score was inactive: 0.805.

As for GGGAUGUGUCUAAUGACUCTT against Zfp677, the z-score was inactive: 0.0909.

On to GGAAAAUGUGAAACAGCUATT against Dhx40, for which the z-score was inactive: -0.873.

For the sequence GGAAGGAAAUAAAAAGGGATT against Pcdhb20, the z-score was inactive: 0.359.

As for GGUCAGAAAAAAGUGUAUUTT against Dennd6a, the z-score was inactive: 0.523.

Consider UAUUUAUCCACUACUGGAATT against Olfr969, for which the z-score was inactive: 0.0334.

For GGAGGUCUUUUCAGAAUAATT against Timmdc1, the z-score was inactive: 1.68.

On to GCAGGAACAGCCUAAGAGATT against Tdp1, for which the z-score is inactive: 0.358.

As to GGGACCCUUCUACAAAAACTT against Pias3, the z-score was inactive: 0.283.

Take GCAACUUAAAGGCAUCUCCTT against Sntn: the z-score is inactive: 1.53.

In the case of GGCAUUCAAGGAUAUGCUGTT against Xpr1, the z-score is inactive: -1.1.

Regarding GAUCAAAGCGGCGUACUACTT against Dnajc30, the z-score was inactive: 0.738.

As to GCUUGUCCAAGUUAGGCGATT against Calm4, the z-score was inactive: 0.294.

As for GGCCAUACGCAAGCUCAAGTT against Rtl5, the z-score was active: -2.96.

In the case of GUGUCCAGUCCUAAAACGATT against Trib3, the z-score was inactive: 1.66.

GGCUUUAAGCUGGUGAUGGTT against Hmox1: the z-score is inactive: -0.225.

Regarding CCCAGAAAUAAUAGGGUCGTT against N4bp2l2, the z-score was inactive: 0.908.

On to GGUCUUCAGAUAAUCUUCCTT against Brinp1, for which the z-score was inactive: 1.91.

As to GGACCGGUGUAAGCUUCGATT against Hinfp, the z-score was active: 2.05.

GGAGAUUAACAAGUGGUGGTT against Parl: the z-score was inactive: -0.426.

For GGUGGUUGCCUUUAUGAAGTT against Tmem159, the z-score is inactive: 0.664.

Consider GGCUCCAACCAACAUUGUUTT against Rpa2, for which the z-score is inactive: -0.363.

As for CGUGAGCACAAAAAUAUUGTT against Fchsd2, the z-score was inactive: -0.251.

In the case of GGGAAGAACAAAUGGUUUUTT against Rpl27, the z-score was inactive: -0.126.

As to CCAAGUCUGAUCUUUUGUATT against Clec16a, the z-score is inactive: -0.153.

For the sequence GCAUUUGAAAUGCUACAGCTT against Rhoq, the z-score is inactive: 0.206.

Take CCGUAUAUUGACCUAAUGGTT against Ppp2ca: the z-score was inactive: -0.0183.

For GCUGCUCGUUAAAGCCGGATT against Ankrd6, the z-score is active: 2.92.

In the case of GCUGCAUGUUACCUACUUGTT against Pold3, the z-score was inactive: 1.34.

With GCAGUGAAUGGACUCGAGATT against Pax1, the z-score is inactive: -0.509.

On to GCUUAUGAGUUCAGUUGUGTT against Olfr143, for which the z-score is inactive: 0.00489.

Regarding GUGUCAUCAUGCCCAAAAUTT against Olfr957, the z-score is inactive: 0.0653.

Regarding GGCCAGACCCGAACUUUGATT against Rnf2, the z-score was inactive: -0.306.

In the case of GGCUCGUUUAAACAACAUATT against Tmem106b, the z-score is inactive: -0.442.

Consider GGCAACUCUCAAUUGCACATT against Olfr1325, for which the z-score is inactive: 1.45.

As to GCUCAUAAGUUUCUAAGGATT against Rab22a, the z-score is inactive: -0.975.

As to CCUAACAACCGCUCUUGUGTT against Efemp2, the z-score was inactive: -1.75.

In the case of CGAAGGUCUGUUCGAGAACTT against Morn4, the z-score was inactive: 0.668.

For the sequence GGAUGAGGCCAUCCUCAAGTT against Rps6ka1, the z-score was inactive: -0.64.

Take GGCCGACAAGCGAUCAAAATT against Arhgap44: the z-score was inactive: 0.424.

As for GGAUCUGAAAUGAACCAGCTT against Rpl38, the z-score was inactive: 1.91.

On to CGGUGUUCGCUUUUCAGAATT against Thap3, for which the z-score was inactive: 0.364.

Turning to UUGUUGCCAAGUAUCUGUCTT against Ugt1a10, the z-score was inactive: -0.332.

Consider GCUUCAGGAGCUCUACUGUTT against Catsper3, for which the z-score is inactive: -0.736.

Take GGCCGGAGCAUCACAAUUUTT against Vamp1: the z-score is inactive: 1.68.

For the sequence GGGAUUUCCUUCAUCAUUATT against Gtf2i, the z-score was inactive: -0.151.

With GGAUAUAACUGCUAUGGUUTT against Rhebl1, the z-score was inactive: -0.241.

For the sequence GCCAAGGAGAUCAUAAAAUTT against Klk14, the z-score was inactive: -0.345.

Take CCCAAGGAGUACAAUAAAATT against Fam122c: the z-score was inactive: 0.594.

Regarding CCCUUCUGUCUGUCUGAAGTT against Olfr247, the z-score was inactive: -0.42.

For GCCACUGUACCUUAUUGGUTT against Msrb1, the z-score was inactive: 0.331.

As for GGUAAAGUCAAAAUCACCATT against Pibf1, the z-score is inactive: 0.924.

On to UCUGACAUUGACUCUAGCCTT against Fbxw16, for which the z-score is active: -2.5.

Take GCUAUGUAUCCCACCAAAATT against Enpp3: the z-score is inactive: -0.357.

As to GGGUUCCUACGAAUUCUACTT against Bpi, the z-score is inactive: 0.734.

GUUUUCUGAGGUGAACAGATT against Ankrd13c: the z-score is inactive: -0.444.

Consider CGCUACGUCCAGUAUCACCTT against Tmem192, for which the z-score was inactive: -0.471.

For the sequence GCAUCUUAUUUAAUUCCCATT against Mrpl39, the z-score was inactive: -1.91.

For the sequence GGCUUUUGAUGAGGUAAAATT against Plekho2, the z-score was inactive: -1.12.

Take CCGUGUGGAGGUACCCAUUTT against Zp3: the z-score was inactive: 1.09.

As to GGCUAUGGAGAAGCAGAUUTT against Srcin1, the z-score was inactive: -0.401.

For GCCACGGAGAUAGCAGUUUTT against Hmgcll1, the z-score is inactive: 1.09.

Consider GGGUUUGAUCAACAGAGCCTT against Id1, for which the z-score was inactive: -0.64.

For the sequence “GGUAACAAUCACCAUAUUCTT against 1700029F12Rik”, the z-score is inactive: -1.94.

Consider GGAGUCUGUAUUCUCAACATT against Kif15, for which the z-score was inactive: -1.66.
